Reference: the supplement of paper PMC10849652
This is one part of the list.

Sequences of proteins named here, by UniProt entry; tags and fusion partners are left off. A change or cut given only in a name is not applied to a line headed by its entry.
UniProt Q9UKV3: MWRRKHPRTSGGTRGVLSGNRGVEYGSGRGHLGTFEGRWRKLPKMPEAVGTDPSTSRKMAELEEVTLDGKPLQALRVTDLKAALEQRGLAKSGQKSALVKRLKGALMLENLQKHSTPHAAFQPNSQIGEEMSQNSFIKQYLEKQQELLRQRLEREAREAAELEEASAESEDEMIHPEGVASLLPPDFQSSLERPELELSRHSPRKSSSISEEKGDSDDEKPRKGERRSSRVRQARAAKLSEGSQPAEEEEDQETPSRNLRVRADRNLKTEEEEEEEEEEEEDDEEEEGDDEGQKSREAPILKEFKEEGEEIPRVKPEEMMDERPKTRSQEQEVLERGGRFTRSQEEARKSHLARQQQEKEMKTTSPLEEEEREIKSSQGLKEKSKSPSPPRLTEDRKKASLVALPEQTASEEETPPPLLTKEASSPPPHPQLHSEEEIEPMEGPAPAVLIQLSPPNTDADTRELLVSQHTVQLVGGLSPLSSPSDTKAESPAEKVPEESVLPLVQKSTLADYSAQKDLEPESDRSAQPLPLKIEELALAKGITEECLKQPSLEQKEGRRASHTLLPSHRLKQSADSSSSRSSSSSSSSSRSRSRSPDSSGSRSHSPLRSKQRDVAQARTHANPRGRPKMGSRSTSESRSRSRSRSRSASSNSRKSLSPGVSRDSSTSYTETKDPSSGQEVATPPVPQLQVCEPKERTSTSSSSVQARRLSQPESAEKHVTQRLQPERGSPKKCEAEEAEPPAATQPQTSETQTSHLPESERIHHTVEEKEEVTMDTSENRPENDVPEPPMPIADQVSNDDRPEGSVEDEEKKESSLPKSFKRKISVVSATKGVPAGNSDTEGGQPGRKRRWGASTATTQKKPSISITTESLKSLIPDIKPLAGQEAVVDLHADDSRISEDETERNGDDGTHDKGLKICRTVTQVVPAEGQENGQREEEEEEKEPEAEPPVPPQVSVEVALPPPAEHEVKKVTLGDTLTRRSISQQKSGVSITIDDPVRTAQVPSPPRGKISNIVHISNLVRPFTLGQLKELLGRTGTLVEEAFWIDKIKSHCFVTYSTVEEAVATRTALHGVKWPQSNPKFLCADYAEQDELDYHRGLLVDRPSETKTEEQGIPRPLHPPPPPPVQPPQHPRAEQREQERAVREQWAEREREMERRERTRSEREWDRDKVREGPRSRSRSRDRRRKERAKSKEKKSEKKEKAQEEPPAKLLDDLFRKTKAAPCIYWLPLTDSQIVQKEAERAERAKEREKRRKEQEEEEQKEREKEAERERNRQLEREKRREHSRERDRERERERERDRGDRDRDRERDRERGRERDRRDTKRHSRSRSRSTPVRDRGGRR
UniProt O75027: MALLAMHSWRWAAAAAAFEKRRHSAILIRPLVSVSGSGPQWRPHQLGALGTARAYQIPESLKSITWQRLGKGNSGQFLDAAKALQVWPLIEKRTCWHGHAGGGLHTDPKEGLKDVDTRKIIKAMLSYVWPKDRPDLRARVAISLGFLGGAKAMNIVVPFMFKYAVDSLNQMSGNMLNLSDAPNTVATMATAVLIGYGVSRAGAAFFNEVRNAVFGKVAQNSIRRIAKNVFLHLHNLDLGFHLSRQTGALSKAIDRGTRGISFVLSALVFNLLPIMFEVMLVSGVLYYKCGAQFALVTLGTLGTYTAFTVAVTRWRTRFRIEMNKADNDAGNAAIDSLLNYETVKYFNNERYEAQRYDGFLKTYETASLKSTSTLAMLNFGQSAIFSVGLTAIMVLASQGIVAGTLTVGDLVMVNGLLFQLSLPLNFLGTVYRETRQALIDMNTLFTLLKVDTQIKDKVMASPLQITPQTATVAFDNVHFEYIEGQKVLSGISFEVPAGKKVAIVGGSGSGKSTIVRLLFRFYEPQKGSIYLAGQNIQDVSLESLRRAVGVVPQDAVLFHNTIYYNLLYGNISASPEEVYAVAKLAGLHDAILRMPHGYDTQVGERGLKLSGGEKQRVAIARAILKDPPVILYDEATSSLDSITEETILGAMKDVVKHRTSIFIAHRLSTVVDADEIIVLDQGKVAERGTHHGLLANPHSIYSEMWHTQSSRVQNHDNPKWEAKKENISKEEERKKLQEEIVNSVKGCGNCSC
UniProt P11310: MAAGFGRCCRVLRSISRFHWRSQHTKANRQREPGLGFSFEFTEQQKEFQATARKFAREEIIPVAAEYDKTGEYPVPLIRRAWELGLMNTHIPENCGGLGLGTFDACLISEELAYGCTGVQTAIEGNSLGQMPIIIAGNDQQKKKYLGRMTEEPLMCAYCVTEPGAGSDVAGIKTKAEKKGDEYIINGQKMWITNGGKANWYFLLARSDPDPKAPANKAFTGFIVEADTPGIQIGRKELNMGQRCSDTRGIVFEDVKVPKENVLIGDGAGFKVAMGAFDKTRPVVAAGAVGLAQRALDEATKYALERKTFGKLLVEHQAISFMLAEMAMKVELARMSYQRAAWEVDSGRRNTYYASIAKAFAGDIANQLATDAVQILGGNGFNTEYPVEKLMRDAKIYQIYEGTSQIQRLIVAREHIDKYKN
UniProt Q9NYB9: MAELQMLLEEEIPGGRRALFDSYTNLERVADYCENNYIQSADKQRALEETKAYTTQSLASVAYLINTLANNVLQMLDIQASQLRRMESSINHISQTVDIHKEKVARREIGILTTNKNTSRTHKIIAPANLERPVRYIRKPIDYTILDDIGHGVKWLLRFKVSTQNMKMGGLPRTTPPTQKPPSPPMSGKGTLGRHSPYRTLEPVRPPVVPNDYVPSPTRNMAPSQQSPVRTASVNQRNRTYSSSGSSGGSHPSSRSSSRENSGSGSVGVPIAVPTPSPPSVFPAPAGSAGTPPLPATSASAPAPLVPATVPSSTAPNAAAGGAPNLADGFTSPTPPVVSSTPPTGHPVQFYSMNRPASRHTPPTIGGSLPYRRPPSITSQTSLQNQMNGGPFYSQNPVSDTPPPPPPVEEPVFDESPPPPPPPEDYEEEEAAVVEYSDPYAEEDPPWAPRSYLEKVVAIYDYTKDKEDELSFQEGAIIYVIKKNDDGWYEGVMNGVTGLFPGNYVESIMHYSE
UniProt Q2M2I8: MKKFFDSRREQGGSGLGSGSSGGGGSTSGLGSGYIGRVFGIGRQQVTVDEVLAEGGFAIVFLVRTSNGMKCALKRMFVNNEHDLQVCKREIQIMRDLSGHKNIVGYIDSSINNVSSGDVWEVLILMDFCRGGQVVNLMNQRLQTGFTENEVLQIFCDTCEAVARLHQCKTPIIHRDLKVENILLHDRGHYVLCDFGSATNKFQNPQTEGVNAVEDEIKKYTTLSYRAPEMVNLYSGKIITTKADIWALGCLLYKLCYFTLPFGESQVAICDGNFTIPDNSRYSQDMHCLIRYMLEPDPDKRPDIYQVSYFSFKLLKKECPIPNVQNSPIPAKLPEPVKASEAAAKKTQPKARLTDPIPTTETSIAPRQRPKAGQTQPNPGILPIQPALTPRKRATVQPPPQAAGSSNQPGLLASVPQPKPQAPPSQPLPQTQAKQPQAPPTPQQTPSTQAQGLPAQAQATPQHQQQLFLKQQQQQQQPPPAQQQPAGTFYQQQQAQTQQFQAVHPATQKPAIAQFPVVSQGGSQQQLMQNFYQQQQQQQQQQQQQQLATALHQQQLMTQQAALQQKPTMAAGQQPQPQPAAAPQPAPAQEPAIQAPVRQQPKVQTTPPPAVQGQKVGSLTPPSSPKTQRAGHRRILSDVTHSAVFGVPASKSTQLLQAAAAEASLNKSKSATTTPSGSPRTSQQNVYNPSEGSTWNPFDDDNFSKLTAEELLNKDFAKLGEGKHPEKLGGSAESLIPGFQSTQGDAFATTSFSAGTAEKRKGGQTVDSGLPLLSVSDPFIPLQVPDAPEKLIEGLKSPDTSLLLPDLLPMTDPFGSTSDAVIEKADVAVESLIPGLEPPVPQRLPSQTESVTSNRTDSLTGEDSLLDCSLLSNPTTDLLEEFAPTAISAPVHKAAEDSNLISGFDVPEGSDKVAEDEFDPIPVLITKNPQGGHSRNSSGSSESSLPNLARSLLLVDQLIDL
UniProt Q96IU4: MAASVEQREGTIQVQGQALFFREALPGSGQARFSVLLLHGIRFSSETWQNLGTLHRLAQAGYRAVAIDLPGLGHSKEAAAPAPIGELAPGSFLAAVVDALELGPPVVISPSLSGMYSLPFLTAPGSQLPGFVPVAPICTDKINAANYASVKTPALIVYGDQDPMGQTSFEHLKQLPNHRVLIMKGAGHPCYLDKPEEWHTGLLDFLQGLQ
UniProt O14639: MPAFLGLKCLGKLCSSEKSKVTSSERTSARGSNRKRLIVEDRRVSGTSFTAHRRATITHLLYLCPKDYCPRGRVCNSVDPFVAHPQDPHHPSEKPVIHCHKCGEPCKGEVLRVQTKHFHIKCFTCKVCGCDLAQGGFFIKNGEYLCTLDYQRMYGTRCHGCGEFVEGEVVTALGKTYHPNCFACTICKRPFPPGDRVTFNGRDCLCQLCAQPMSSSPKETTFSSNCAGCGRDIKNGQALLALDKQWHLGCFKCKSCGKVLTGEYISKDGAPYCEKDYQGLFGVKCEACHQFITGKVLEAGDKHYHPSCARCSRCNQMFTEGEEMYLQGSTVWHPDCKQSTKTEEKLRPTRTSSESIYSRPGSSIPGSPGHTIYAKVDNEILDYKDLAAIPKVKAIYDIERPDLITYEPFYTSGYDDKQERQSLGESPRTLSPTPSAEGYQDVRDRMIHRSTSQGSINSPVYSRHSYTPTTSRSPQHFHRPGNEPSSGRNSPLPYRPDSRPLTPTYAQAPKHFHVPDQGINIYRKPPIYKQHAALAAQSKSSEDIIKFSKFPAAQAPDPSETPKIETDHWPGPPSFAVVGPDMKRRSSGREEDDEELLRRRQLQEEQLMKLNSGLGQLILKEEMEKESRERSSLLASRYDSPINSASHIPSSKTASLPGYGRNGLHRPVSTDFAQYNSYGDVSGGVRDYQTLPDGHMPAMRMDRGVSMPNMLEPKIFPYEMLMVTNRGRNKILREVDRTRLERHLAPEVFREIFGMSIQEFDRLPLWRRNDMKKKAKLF

Columns and labels:
Assay in all cases: log2 fold change, soluble protein after heating vs DMSO (PISA); higher = thermal stabilisation; K562 lysate, 10 uM; active = over 0.2 and 3.5 SD of the protein, either way, in both replicates (recomputed)
[1] = compound: CCCS(=O)(=O)Nc1ccc(F)c(C(=O)c2c[nH]c3ncc(-c4ccc(Cl)cc4)cc23)c1F [vemurafenib]
Procedure, shortened: (§1)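 Dounce homogenisation of K562 pellets in PBS pH 7.4 with 1 mM MgCl2 produced a crude extract, used at 1 mg/mL protein. Exposure to 10 μM compound lasted 30 min, and aliquots were then heated for 3 min across 48°C-58°C, pooled and brought to 0.5% NP-40 at 4°C. The supernatant after 21,000xg for 90 min was quantified by TMTpro 16plex LC-MS/MS with channel sums equalised. Duplicate values are given as log-two fold change in thermal stability relative to solvent controls.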

[2] = compound: CCCS(=O)(=O)Nc1ccc(F)c(C(=O)c2c[nH]c3ncc(Cl)cc23)c1F
Procedure, shortened: as §1

[3] = compound: CCN(CCCOc1ccc2c(Nc3cc(CC(=O)Nc4cccc(F)c4)[nH]n3)ncnc2c1)CCOP(=O)(O)O [barasertib]
Procedure, shortened: as §1

[4] = compound: CC[C@@H]1C(=O)N(C)c2cnc(Nc3ccc(C(=O)NC4CCN(C)CC4)cc3OC)nc2N1C1CCCC1
Procedure, shortened: as §1

[5] = compound: CC[C@@H]1C(=O)N(C)c2cnc(Nc3ccc(C(=O)N[C@H]4CC[C@H](N5CCN(CC6CC6)CC5)CC4)cc3OC)nc2N1C(C)C [volasertib]
Procedure, shortened: as §1

[6] = compound: CCn1c(C(=O)N(C2CC2)C2CC2)cc2c3c(ncn3C)c(Nc3cc(C)n(C)n3)nc21
Procedure, shortened: as §1

[7] = compound: CCn1cc(-c2ccnc3[nH]c(-c4cccc(CN(C)C)c4)cc23)c(-c2ccc(NC(=O)N(C)C)cc2)n1
Procedure, shortened: as §1

[8] = compound: CN1CCC(CNc2ccc3ncc(-c4cccc(OC(F)(F)F)c4)n3n2)CC1
Procedure, shortened: as §1

[9] = compound: CN1CCN(CCOc2cc(OC3CCOCC3)c3c(Nc4c(Cl)ccc5c4OCO5)ncnc3c2)CC1 [saracatinib]
Procedure, shortened: as §1

[10] = compound: CN1CCN(c2nc(C3=C(c4c[nH]c5ccccc45)C(=O)NC3=O)c3ccccc3n2)CC1 [sotrastaurin]
Procedure, shortened: as §1

[11] = compound: CN1CC[C@H](c2c(O)cc(O)c3c(=O)cc(-c4ccccc4Cl)oc23)[C@H](O)C1 [alvocidib]
Procedure, shortened: as §1

[12] = compound: CN1CCc2c(c3ccccc3n2Cc2ccc(C(=O)NO)cc2)C1 [Tubastatin A]
Procedure, shortened: as §1

[13] = compound: CNC(=O)C1=CC=CC=C1NC2=NC(=NC=C2Cl)NC3=C(C=C(C=C3)N4CCOCC4)OC
Procedure, shortened: as §1

[14] = compound: CNC(=O)c1ccc(Nc2ncc(C(F)(F)F)c(NCc3nccnc3N(C)S(C)(=O)=O)n2)cc1 [defactinib]
Procedure, shortened: as §1

[15] = compound: CNc1nc(-c2ccc3c(N)n[nH]c3c2)cc(N2C[C@@H](C(=O)NC3CCCCC3)CC[C@H]2C)n1
Procedure, shortened: as §1

[16] = compound: COC(=O)N[C@@H](C)CNc1nccc(-c2cn(C(C)C)nc2-c2cc(Cl)cc(NS(C)(=O)=O)c2F)n1 [encorafenib]
Procedure, shortened: as §1

[17] = compound: COC(=O)[C@H](CCSC)NC(=O)C1=C(C=C(C=C1)NC[C@H](CS)N)C2=CC=CC=C2
Procedure, shortened: as §1

[18] = compound: COc1cc(Nc2ncc3c(n2)-c2ccc(Cl)cc2C(c2c(F)cccc2OC)=NC3)ccc1C(=O)O [alisertib]
Procedure, shortened: as §1

[19] = compound: COc1cc2nc(-c3cc(F)ccc3O)nc(N[C@@H]3CNC[C@H]3C(C)(C)O)c2cc1OC
Procedure, shortened: as §1

[20] = compound: COc1cc2ncnc(Nc3ccc(F)c(Cl)c3)c2cc1OCCCN1CCOCC1 [gefitinib]
Procedure, shortened: as §1

## ACIN1 (UniProt E7EQT4)
[1]
  log2 fold change: inactive: -0.057
[2]
  log2 fold change: inactive: 0.026
[3]
  log2 fold change: inactive: -0.021
[4]
  log2 fold change: inactive: -0.011
[5]
  log2 fold change: inactive: 0.045
[6]
  log2 fold change: inactive: 0.048
[7]
  log2 fold change: inactive: -0.321
[8]
  log2 fold change: inactive: 0.127
[9]
  log2 fold change: inactive: -0.016
[10]
  log2 fold change: inactive: 0.047
[11]
  log2 fold change: inactive: -0.093
[12]
  log2 fold change: inactive: 0.095
[13]
  log2 fold change: inactive: 0.003
[14]
  log2 fold change: inactive: -0.038
[15]
  log2 fold change: inactive: 0.06
[16]
  log2 fold change: inactive: 0.022
[17]
  log2 fold change: inactive: -0.033
[18]
  log2 fold change: inactive: -0.039
[19]
  log2 fold change: inactive: -0.011
[20]
  log2 fold change: inactive: 0.051

## ACIN1 isoform 5 (UniProt Q9UKV3)
[1]
  log2 fold change: inactive: 0.014
[2]
  log2 fold change: inactive: 0.024
[3]
  log2 fold change: inactive: 0.009
[4]
  log2 fold change: inactive: -0.016
[5]
  log2 fold change: inactive: 0
[6]
  log2 fold change: inactive: -0.018
[7]
  log2 fold change: inactive: 0.067
[8]
  log2 fold change: inactive: -0.01
[9]
  log2 fold change: inactive: 0.006
[10]
  log2 fold change: inactive: 0.014
[11]
  log2 fold change: inactive: -0.038
[12]
  log2 fold change: inactive: 0.039
[13]
  log2 fold change: inactive: -0.034
[14]
  log2 fold change: inactive: -0.009
[15]
  log2 fold change: inactive: 0.053
[16]
  log2 fold change: inactive: -0.004
[17]
  log2 fold change: inactive: -0.01
[18]
  log2 fold change: inactive: 0.032
[19]
  log2 fold change: inactive: -0.003
[20]
  log2 fold change: inactive: 0.001

## ABCB7 isoform 2 (UniProt O75027)
[1]
  log2 fold change: inactive: 0.043
[2]
  log2 fold change: inactive: -0.02
[3]
  log2 fold change: inactive: 0.018
[4]
  log2 fold change: inactive: -0.07
[5]
  log2 fold change: inactive: 0.014
[6]
  log2 fold change: inactive: 0.041
[7]
  log2 fold change: inactive: -0.078
[8]
  log2 fold change: inactive: -0.061
[9]
  log2 fold change: inactive: 0.014
[10]
  log2 fold change: inactive: 0.007
[11]
  log2 fold change: inactive: 0.014
[12]
  log2 fold change: inactive: 0.009
[13]
  log2 fold change: inactive: -0.08
[14]
  log2 fold change: inactive: -0.065
[15]
  log2 fold change: inactive: -0.088
[16]
  log2 fold change: inactive: -0.028
[17]
  log2 fold change: inactive: 0.064
[18]
  log2 fold change: inactive: 0.048
[19]
  log2 fold change: inactive: 0.01
[20]
  log2 fold change: inactive: -0.07

## ACADM isoform 2 (UniProt P11310)
[1]
  log2 fold change: inactive: 0.02
[2]
  log2 fold change: inactive: -0.011
[3]
  log2 fold change: inactive: 0.069
[4]
  log2 fold change: inactive: 0.001
[5]
  log2 fold change: inactive: -0.062
[6]
  log2 fold change: inactive: -0.051
[7]
  log2 fold change: inactive: -0.031
[8]
  log2 fold change: inactive: -0.046
[9]
  log2 fold change: inactive: -0.023
[10]
  log2 fold change: active: 0.67
[11]
  log2 fold change: inactive: -0.022
[12]
  log2 fold change: inactive: -0.012
[13]
  log2 fold change: inactive: 0.046
[14]
  log2 fold change: inactive: -0.01
[15]
  log2 fold change: active: 0.386
[16]
  log2 fold change: inactive: -0.032
[17]
  log2 fold change: inactive: 0.13
[18]
  log2 fold change: inactive: 0.062
[19]
  log2 fold change: inactive: 0.09
[20]
  log2 fold change: inactive: -0.024

## ABI2 (UniProt Q9NYB9)
[1]
  log2 fold change: inactive: -0.033
[2]
  log2 fold change: inactive: 0
[3]
  log2 fold change: inactive: 0.038
[4]
  log2 fold change: inactive: -0.027
[5]
  log2 fold change: inactive: -0.008
[6]
  log2 fold change: inactive: -0.025
[7]
  log2 fold change: inactive: 0.014
[8]
  log2 fold change: inactive: -0.061
[9]
  log2 fold change: inactive: -0.007
[10]
  log2 fold change: inactive: -0.032
[11]
  log2 fold change: inactive: 0.063
[12]
  log2 fold change: inactive: 0.003
[13]
  log2 fold change: inactive: -0.003
[14]
  log2 fold change: inactive: 0.018
[15]
  log2 fold change: inactive: -0.066
[16]
  log2 fold change: inactive: 0.003
[17]
  log2 fold change: inactive: -0.108
[18]
  log2 fold change: inactive: -0.01
[19]
  log2 fold change: inactive: -0.054
[20]
  log2 fold change: inactive: 0.029

## AAK1 (UniProt Q2M2I8)
[1]
  log2 fold change: inactive: 0.015
[2]
  log2 fold change: inactive: -0.087
[3]
  log2 fold change: inactive: -0.004
[4]
  log2 fold change: inactive: 0.049
[5]
  log2 fold change: inactive: 0.061
[6]
  log2 fold change: inactive: -0.005
[7]
  log2 fold change: inactive: -0.068
[8]
  log2 fold change: inactive: 0.407
[9]
  log2 fold change: inactive: 0.029
[10]
  log2 fold change: inactive: 0.033
[11]
  log2 fold change: inactive: 0.063
[12]
  log2 fold change: inactive: 0.049
[13]
  log2 fold change: inactive: 0.454
[14]
  log2 fold change: inactive: 0.116
[15]
  log2 fold change: inactive: 0.308
[16]
  log2 fold change: inactive: -0.149
[17]
  log2 fold change: inactive: -0.081
[18]
  log2 fold change: inactive: -0.046
[19]
  log2 fold change: inactive: -0.047
[20]
  log2 fold change: inactive: 0.039

## ABHD14B (UniProt Q96IU4)
[1]
  log2 fold change: inactive: 0.004
[2]
  log2 fold change: inactive: 0.015
[3]
  log2 fold change: inactive: 0.081
[4]
  log2 fold change: inactive: -0.057
[5]
  log2 fold change: inactive: 0.012
[6]
  log2 fold change: inactive: 0.009
[7]
  log2 fold change: inactive: -0.014
[8]
  log2 fold change: inactive: 0
[9]
  log2 fold change: inactive: 0.022
[10]
  log2 fold change: inactive: 0.007
[11]
  log2 fold change: inactive: 0.016
[12]
  log2 fold change: inactive: 0.011
[13]
  log2 fold change: inactive: 0.01
[14]
  log2 fold change: inactive: 0.026
[15]
  log2 fold change: inactive: 0.063
[16]
  log2 fold change: inactive: 0.006
[17]
  log2 fold change: inactive: -0.012
[18]
  log2 fold change: inactive: 0.004
[19]
  log2 fold change: inactive: -0.032
[20]
  log2 fold change: inactive: -0.025

## ABLIM1 (UniProt O14639)
[1]
  log2 fold change: inactive: 0.014
[2]
  log2 fold change: inactive: 0.013
[3]
  log2 fold change: inactive: 0.129
[4]
  log2 fold change: inactive: 0.073
[5]
  log2 fold change: inactive: 0.011
[6]
  log2 fold change: inactive: 0.093
[7]
  log2 fold change: inactive: -0.17
[8]
  log2 fold change: inactive: 0.117
[9]
  log2 fold change: inactive: -0.008
[10]
  log2 fold change: inactive: -0.028
[11]
  log2 fold change: inactive: -0.095
[12]
  log2 fold change: inactive: 0.058
[13]
  log2 fold change: inactive: 0.029
[14]
  log2 fold change: inactive: -0.045
[15]
  log2 fold change: inactive: 0.065
[16]
  log2 fold change: inactive: -0.069
[17]
  log2 fold change: inactive: -0.034
[18]
  log2 fold change: inactive: 0.093
[19]
  log2 fold change: inactive: 0.01
[20]
  log2 fold change: inactive: 0.009
